{"source": "PubChem BioAssay AID1347076", "about": "(National Center for Advancing Translational Sciences (NCATS), 2019)", "note": "Hit rate of the full screen: of about 400,000 compounds, about 13,000 (3.2%) were called active. This list was built around the results that the source calls inconclusive (neither active nor inactive); the mix of calls is not that of the screen. Calls follow the shape of the dose curve; as a rule, active = well fitted cell-killing curve with a large enough effect; inconclusive = small, poorly fitted or top-dose-only effect, or effect the other way; inactive = flat fitted curve, though single readings scatter. A potency beside an inconclusive call is a rough fit, not a confirmed value. % is scaled to controls: 0 for no effect and ±100 for the full control effect; potency is read from the fitted curve at half-maximal effect.", "data": [{"assay": "qHTS assay for MDR1-selective chemotherapeutics: Primary screen using the drug-selected MDR subline cells KB-V1; also: nearly all actives have a fitted effect of over 60% in size", "conditions": "KB-V1 MDR cells viability, CellTiter-Glo, 72 h; activity change, negative = cytotoxicity: at 46.1 µM (top of the series)", "method_in_brief": "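KB-V1 MDR subline cells in DMEM (phenol-red free, 10% FBS) exposed to compounds in qHTS concentration series for 72 h at 37 degrees C. Viability read by CellTiter-Glo luminescence; concentration-effect curves fitted after normalization and correction.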", "values": [{"molecule": "Cc1cc(Br)c(NC(=O)COn2nnc3ccc(S(C)(=O)=O)cc32)c(Br)c1", "activity change, negative = cytotoxicity": "inactive: -23.5%"}, {"molecule": "CC(C)C[C@@H](CN1CCC[C@H]1CN1C(=O)C(=O)NC[C@@H]1Cc1ccc(O)cc1)N1C[C@H](Cc2ccccc2)N(CC2CCCCCC2)C(=O)C1=O", "activity change, negative = cytotoxicity": "inactive: -13.7%"}, {"molecule": "CN(C)CCCN(Cc1ccccc1)C(=S)Nc1ccc(OC(F)F)cc1", "Potency": "inconclusive: 16.4 µM [cytotoxic, partial curve, poor fit]"}, {"molecule": "O=C(NCCCO)/C(=C\\c1ccco1)NC(=O)c1ccco1", "activity change, negative = cytotoxicity": "inactive: 21%"}, {"molecule": "Cc1c(CC(=O)O)c(=O)oc2c(C)c(OCc3ccc(F)cc3Cl)ccc12", "Potency": "inconclusive: 29.1 µM [rising, single point]"}, {"molecule": "COc1ccc(OC)c(-c2csc(NC(=O)Cc3ccccc3OC)n2)c1", "Potency": "inconclusive: 23.1 µM [cytotoxic, partial curve, poor fit]"}, {"molecule": "COc1ccccc1CN1CCC(n2nccc2NC(=O)CCCc2ccccc2)CC1", "activity change, negative = cytotoxicity": "inactive: -0.198%"}, {"molecule": "CN1CCN(CC(=O)Nc2c(C#N)cnn2-c2ccccc2)CC1", "Potency": "inconclusive: 16.4 µM [rising, partial curve]"}, {"molecule": "CCCC1(C(=O)O)NC(c2ccc(OC)cc2O)C2C(=O)N(c3ccc(OC)cc3)C(=O)C21", "note": "(centres undefined)", "Potency": "inconclusive: 14.6 µM [rising, single point]"}, {"molecule": "CCCNC(=O)c1ccc2c(c1)N=C(C)c1c(C)ccc(C)c1S2", "Potency": "inconclusive: 0.92 µM [cytotoxic, partial curve, poor fit]"}, {"molecule": "CCS(=O)(=O)Nc1cccc(C(=O)O)c1", "Potency": "inconclusive: 23.1 µM [rising, single point]"}, {"molecule": "COc1ccc(NC(=O)C(Sc2nnc(-c3ccncc3)n2-c2ccccc2C)c2ccccc2)cc1Cl", "note": "(centres undefined)", "Potency": "inconclusive: 29.1 µM [cytotoxic, partial curve, poor fit]"}, {"molecule": "CN(CC1CCCO1)S(=O)(=O)c1ccc(C(=O)Nc2nccs2)cc1", "note": "(centres undefined)", "Potency": "active: 18.4 µM"}, {"molecule": "CC1CC(=O)c2cnc(Nc3ccccc3)nc2C1", "note": "(centres undefined)", "Potency": "inconclusive: 29.1 µM [cytotoxic, partial curve, poor fit]"}, {"molecule": "COC(=O)C1CCN(Cc2cn(Cc3ccccc3)nc2-c2cc3ccccc3o2)CC1", "activity change, negative = cytotoxicity": "inactive: 13%"}, {"molecule": "CCOC(=O)c1cc(-c2ccccc2)sc1NC(=O)COC", "activity change, negative = cytotoxicity": "inactive: 0%"}, {"molecule": "CC(C)(C)c1ccc(S(=O)(=O)N2CCC(c3nc4ccc(Cl)cc4[nH]3)CC2)cc1", "Potency": "inconclusive: 29.1 µM [cytotoxic, single point]"}, {"molecule": "CC1(C)C(C#N)=C(N)Oc2c1c(=O)oc1ccccc21", "Potency": "inconclusive: 14.6 µM [cytotoxic, single point]"}, {"molecule": "CCOC(=O)c1cnc2cc(-c3ccc(Br)cc3)nn2c1C", "activity change, negative = cytotoxicity": "inactive: -3.62%"}, {"molecule": "O=C(NCC(c1cccs1)S(=O)(=O)c1cccs1)c1ccccc1F", "note": "(centres undefined)", "activity change, negative = cytotoxicity": "inactive: 6.95%"}, {"molecule": "Cc1ccc(S(=O)(=O)N(CC(=O)Nc2ccc(C(C)C)cc2)Cc2ccccc2)cc1", "Potency": "inconclusive: 8.2 µM [cytotoxic, partial curve]"}, {"molecule": "COc1ccc(C2OC(=O)CC2C(=O)NCc2ccc(C)cc2)cc1OC", "note": "(centres undefined)", "Potency": "inconclusive: 29.1 µM [rising, single point]"}, {"molecule": "CC1CCN(C(=O)c2[nH]c(C(F)(F)F)nc2-c2ccccc2)CC1", "activity change, negative = cytotoxicity": "inactive: 14.3%"}, {"molecule": "O=C(NCC1CCCO1)c1ccc(COc2ccc(F)cc2)o1", "note": "(centres undefined)", "Potency": "inconclusive: 20.6 µM [cytotoxic, single point]"}, {"molecule": "O=C(NCC1CCN(C(=O)c2ccc([N+](=O)[O-])cc2)CC1)C(=O)Nc1ccccc1", "Potency": "inconclusive: 8.2 µM [cytotoxic, partial curve]"}, {"molecule": "Nc1ccc(C(O)(C(F)(F)F)C(F)(F)F)cc1", "Potency": "inconclusive: 23.1 µM [cytotoxic, partial curve, poor fit]"}, {"molecule": "Cc1cc(C(F)(F)F)c2c(N)c(C(=O)NCc3ccc(Cl)cc3)sc2n1", "Potency": "inconclusive: 16.4 µM [cytotoxic, partial curve]"}, {"molecule": "O=S(=O)(Nc1nc2ccccc2nc1N1CCN(c2ccccc2F)CC1)c1ccc(Cl)cc1", "Potency": "inconclusive: 12.6 µM [cytotoxic, partial curve, poor fit]"}, {"molecule": "Cc1cc(C(=O)O)sc1C", "Potency": "inconclusive: 12.6 µM [rising, single point]"}, {"molecule": "CCCC(=O)NC(=S)Nc1ccccc1N1CCOCC1", "Potency": "inconclusive: 16.4 µM [cytotoxic, single point]"}, {"molecule": "COc1ccc(CCNC(=O)CO/N=C/c2cc3c(cc2Br)OCO3)cc1OC", "Potency": "inconclusive: 18.4 µM [cytotoxic, partial curve]"}, {"molecule": "Cc1noc(C)c1-c1ccc(C(=O)NCc2ccc(Cl)cc2)c2occc12", "Potency": "inconclusive: 20.6 µM [cytotoxic, single point]"}, {"molecule": "CCOC(=O)c1[nH]c2ccccc2c1NC(=O)c1ccccc1OCC", "Potency": "inconclusive: 0.92 µM [cytotoxic, full curve, poor fit]"}, {"molecule": "COc1ccccc1CN1CC(C(=O)N2CCN(c3ccc(F)cc3)CC2)CC1=O", "note": "(centres undefined)", "Potency": "inconclusive: 14.6 µM [cytotoxic, partial curve]"}, {"molecule": "O=C(N/N=C/c1cn(-c2ccccc2)nc1-c1cc2ccccc2o1)c1ccccc1Br", "Potency": "inconclusive: 20.6 µM [cytotoxic, single point]"}, {"molecule": "COc1ccccc1NC(=O)Cn1cc(C#N)c2ccccc21", "activity change, negative = cytotoxicity": "inactive: -23.1%"}, {"molecule": "O=C(Nc1ccc(N2CCCC2)c(S(=O)(=O)Nc2cccc(C(F)(F)F)c2)c1)c1cccs1", "Potency": "inconclusive: 20.6 µM [cytotoxic, single point]"}, {"molecule": "Fc1ccc2[nH]c3c(N4CCN(Cc5ccc6c(c5)OCO6)CC4)ncnc3c2c1", "Potency": "active: 9.2 µM"}, {"molecule": "O=[N+]([O-])c1ccc2[nH]c3nc4ccccc4nc3c2c1", "activity change, negative = cytotoxicity": "inactive: -16.3%"}, {"molecule": "CCCOP(=O)(OCCC)c1c([N+](=O)[O-])cc(C(F)(F)F)cc1[N+](=O)[O-]", "Potency": "inconclusive: 23.1 µM [cytotoxic, single point]"}, {"molecule": "O=C(Nc1ccc2c(c1)CCCN2C(=O)c1cccs1)c1cccc(C(F)(F)F)c1", "Potency": "inconclusive: 29.1 µM [cytotoxic, single point]"}, {"molecule": "O=C(CCN1C(=O)NC2(CCCC2)C1=O)Nc1ccc(-c2nc3ccccc3s2)cc1", "activity change, negative = cytotoxicity": "inactive: -6.73%"}, {"molecule": "O=C(NCC(O)c1nc2ccccc2[nH]1)c1cc2ccccc2[nH]1", "note": "(centres undefined)", "activity change, negative = cytotoxicity": "inactive: -4.7%"}, {"molecule": "S=c1[nH]nc(-c2ccccn2)n1/N=C/c1ccc(-c2ccccc2Br)o1", "activity change, negative = cytotoxicity": "inactive: 12.1%"}, {"molecule": "COc1cc(/C=N/NC(=O)C[n+]2ccccc2)cc(OC)c1OC", "Potency": "inconclusive: 29.1 µM [rising, single point]"}, {"molecule": "COC(=O)c1c(NC(=O)CN2CCOCC2)sc2c1CCC(C)C2", "note": "(centres undefined)", "Potency": "inconclusive: 13 µM [cytotoxic, partial curve]"}, {"molecule": "CCOc1ccc2oc(C(=O)NCc3ccccc3CN3CCCC3)c(C)c2c1", "activity change, negative = cytotoxicity": "inactive: 0%"}, {"molecule": "CC(C)n1cc(C#N)c(N)n1", "activity change, negative = cytotoxicity": "inactive: 1.15%"}, {"molecule": "COC(=O)c1cc(NC(=O)c2oc(=O)c3ccccc3c2-c2ccccc2)cc(C(=O)OC)c1", "activity change, negative = cytotoxicity": "inactive: 37.7%"}, {"molecule": "Cc1cc(OCCCn2cnc3ccccc3c2=O)ccc1[N+](=O)[O-]", "Potency": "inconclusive: 16.4 µM [cytotoxic, single point]"}, {"molecule": "Nc1nnnn1/N=C/c1ccc(N2CCCCC2)c([N+](=O)[O-])c1", "activity change, negative = cytotoxicity": "inactive: -14.3%"}, {"molecule": "Cn1c(/C=C/c2cccc(Br)c2)nc2ccccc2c1=O", "Potency": "inconclusive: 23.1 µM [cytotoxic, partial curve, poor fit]"}, {"molecule": "CCCCSc1nc2c(cnn2-c2ccccc2)c(=O)n1N", "Potency": "inconclusive: 29.1 µM [cytotoxic, single point]"}, {"molecule": "COc1cccc(CSc2nc3cc4c(cc3cc2C)OCCO4)c1", "Potency": "inconclusive: 29.1 µM [cytotoxic, single point]"}, {"molecule": "O=C1NC2(CCC3(CC2)OCCO3)NN1c1ccc(Cl)cc1", "activity change, negative = cytotoxicity": "inactive: -17.5%"}, {"molecule": "CC1=CC(C)(C)N2C(=O)C3(C(C#N)=C(N)Oc4cc(O)ccc43)c3c(C)c(C)cc1c32", "note": "(centres undefined)", "Potency": "inconclusive: 25.9 µM [cytotoxic, partial curve, poor fit]"}, {"molecule": "NC1(C(=O)O)CSSC1", "Potency": "active: 6.51 µM"}, {"molecule": "Cc1c(N=C(N)/N=C(\\N)Nc2ccccc2)c(=O)n(-c2ccccc2)n1C", "Potency": "inconclusive: 29.1 µM [rising, single point]"}, {"molecule": "CC(NC(=O)COC(=O)c1ccco1)c1ccccc1", "note": "(centres undefined)", "activity change, negative = cytotoxicity": "inconclusive: 41.3%"}, {"molecule": "C=CC[C@@H](CC(=O)N(CCO)Cc1ccccc1)C(=O)N[C@@H](COC(=O)[C@@H](CC=C)Cc1ccc(F)cc1)Cc1c[nH]c2ccccc12", "Potency": "inconclusive: 29.1 µM [cytotoxic, single point]"}, {"molecule": "COc1ccc(OC)c2nc3c(C(=O)NCCN(C)C)cccc3nc12", "Potency": "active: 20.6 µM"}, {"molecule": "COCCN(Cc1cc2cc(C)c(C)cc2nc1Cl)C(=O)Nc1ccccc1", "activity change, negative = cytotoxicity": "inactive: 0%"}, {"molecule": "CCN(CC)CCN1C(=O)c2ccccc2NC1c1ccc(OC)c(COc2ccc(NC(C)=O)cc2)c1", "note": "(centres undefined)", "activity change, negative = cytotoxicity": "inconclusive: 39.9%"}, {"molecule": "Clc1ccc(CSc2nnc(NC3=NCCCCC3)s2)cc1", "Potency": "inconclusive: 20.6 µM [cytotoxic, single point]"}, {"molecule": "CCc1nc2ccc(C(=O)N(C)Cc3ccco3)cn2c1N(CC)Cc1cccc(Br)c1", "Potency": "inconclusive: 20.6 µM [cytotoxic, single point]"}, {"molecule": "COc1ccc(O)c(/C=N/NC(=S)NCCc2ccccc2)c1", "Potency": "inconclusive: 29.1 µM [cytotoxic, single point]"}, {"molecule": "CC(C)c1ccc(CN2CCN(C(=O)CCl)CC2)cc1", "Potency": "inconclusive: 29.1 µM [cytotoxic, single point]"}, {"molecule": "Nc1ncnc2c1nc(N1CCCCC1)n2[C@@H]1O[C@H](CO)[C@@H](O)[C@H]1O", "Potency": "inconclusive: 29.1 µM [rising, single point]"}, {"molecule": "CSCCC(NS(=O)(=O)c1ccc2c(c1)OCCO2)C(=O)N(C)Cc1ccc(F)cc1", "note": "(centres undefined)", "Potency": "inconclusive: 18.4 µM [cytotoxic, partial curve]"}]}]}
